For at least one compound, name, drawing or mass did not settle the structure.
Experiment: Plasma noribogaine pharmacokinetics in healthy volunteers (Example 7)
Assay type: in vivo
Conditions: human plasma, mean

Q: For CC[C@H]1C[C@H]2C[C@H]3c4[nH]c5ccc(O)cc5c4CCN(C2)[C@@H]13 [noribogaine], which Vd/F (single oral 3 mg (n = 6)) is on record?
A: The Vd/F was 2485.1 L.

Q: And the Vd/F (single oral 10 mg (n = 6))?
A: The Vd/F was 3085.8 L.

Q: And the Vd/F (single oral 30 mg (n = 6))?
A: Its Vd/F is 1850.8 L.

Q: And the Vd/F (single oral 60 mg (n = 6))?
A: The Vd/F was 1416.8 L.
